Source: patent US20240382443A1, “GENERATION OF S-NITROSOACETYLCYSTEINE” (The UAB Research Foundation, priority 2023, published 2024)

Test: NO and NO2 levels in SNOAC aerosols and reaction vessel headspace
Assay type: physicochemical
Details: 100 mM SNOAC nebulized 0.2 mL/min, 4 L/min

CC(=O)N[C@@H](CSN=O)C(=O)O [SNOAC, S-nitroso-N-acetylcysteine]
Nitric oxide (NO) (carrier gas 100% oxygen): 5.2 ± 0.9 ppm | Nitric oxide (NO) (carrier gas air): 5.6 ± 1.2 ppm | Nitric oxide (NO) (carrier gas nitrogen): 5.5 ppm
